Some of the results follow. Shown are side measurements of this screen, not its main read-out; they come without a call. Compounds called inactive in the main read-out are mostly missing here. The note in brackets gives the kind of curve behind each potency; many fits are weak.
Assay: qHTS Assay for Modulators of Lamin A Splicing
Conditions: HeLa LMNA splicing GFP/RFP minigene ratio, 48 h
Procedure, shortened: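 Read-out is the ratio of GFP to DsRed2 object intensity, acquired by 488 nm laser-scanning cytometry on HeLa lamin A-EGFP minigene reporter cells. Compound incubation 48 hrs at 37 °C in Opti-MEM with 2% FBS; DMSO 0.5% final.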

[1] = measured here: GFP splicing reporter channel
[2] = measured here: RFP viability control channel

SMILES | AC50 [1] | AC50 [2]
CCN1CCN(c2ncc3c(n2)CCN(Cc2ccc(OC(C)C)cc2)C3)CC1 | 0.0316 µM [falling, full curve] | –
Cc1ccc(-c2cc(C(=O)N/N=C/c3c(C)nn(-c4ccccc4)c3C)[nH]n2)cc1 | – | 1.41 µM [rising, partial curve]
CCOc1ccc(NC(=O)c2ccccc2O)cc1 | 35.5 µM [rising, single point] | 35.5 µM [rising, single point]
O=C(CN1CCN(S(=O)(=O)c2ccccc2)CC1)Nc1ccc([N+](=O)[O-])cc1 | 31.6 µM [rising, single point] | –
CCOC(=O)c1cccc(NC(=O)NCc2ccc3c(c2)CCN3C(=O)c2ccccc2)c1 | 7.08 µM [falling, full curve, poor fit] | –
COc1ccc(NC(=O)CN(C)S(=O)(=O)c2ccc3c(c2)OCCO3)c2ncccc12 | – | 15.8 µM [rising, partial curve, poor fit]
CN(Cc1ccc(F)cc1)C(=O)COc1ccccc1-c1ccccc1 | 0.708 µM [rising, full curve, poor fit] | 0.398 µM [rising, full curve]
CCOC(=O)c1sc(Nc2nc3ccc(OC)cc3s2)cc1C | 10 µM [rising, partial curve] | 14.1 µM [rising, partial curve]
Cc1cc(S(=O)(=O)Nc2ccc(-c3ccc(N4CCCCCC4)nn3)cc2)c(C)cc1Cl | 5.62 µM [falling, partial curve, poor fit] | 3.98 µM [falling, full curve, poor fit]
COC(=O)c1sc(NC(=O)c2cc(-c3ccccc3)nc3ccccc23)c(C#N)c1C | 3.55 µM [rising, full curve, poor fit] | 2.82 µM [rising, full curve]
COc1ccc(-n2nnnc2S(=O)(=O)CC(=O)N2CCCCC2)cc1 | 35.5 µM [falling, single point] | 35.5 µM [falling, single point]
CC(=O)c1c(C)[nH]c(C(=O)Nc2cccc(S(=O)(=O)N3CCOCC3)c2)c1C | – | 11.2 µM [rising, partial curve]
CN(Cc1ccccc1)S(=O)(=O)c1ccc(NC(=O)C2CCCO2)cc1 (configuration not stated) | – | 10 µM [rising, partial curve, poor fit]
NC(=O)c1ccsc1NC(=O)c1ccc2c(c1)CCCC2 | – | 11.2 µM [rising, partial curve]
Cc1ccc(C)c(Nc2ncccc2C(=O)NCc2cccs2)c1 | – | 20 µM [rising, single point]
CCOC(=O)c1ccc(NC(=O)c2ccc(CO)c(C(=O)NC3CCN(C(=O)OCC)CC3)c2)cc1 | – | 14.1 µM [rising, single point]
CCCc1nn2c(=O)cc(COC(=O)c3ccccc3NC(=O)c3ccc(Cl)cc3)nc2s1 | 0.178 µM [falling, full curve] | 0.158 µM [falling, full curve]
COc1cccc(NC(=O)c2c(C)cc(C)cc2CC(C)(C)C(=O)O)c1 | 3.98 µM [rising, partial curve, poor fit] | 3.55 µM [rising, single point]
Cc1ccccc1C(=O)OCc1cc(=O)n2nc(-c3cccs3)sc2n1 | 1.26 µM [falling, full curve] | 0.0398 µM [falling, full curve, poor fit]
COc1cccc(Cn2c(=O)c(-c3ccc(Cl)cc3)nc3cnc(N4CCNCC4)nc32)c1 | 22.4 µM [falling, partial curve] | 14.1 µM [falling, partial curve]
COCCn1c(SCC(=O)NCc2ccco2)nnc1-c1c[nH]c2ccccc12 | – | 5.01 µM [rising, full curve, poor fit]
COc1ccc2cc(S(=O)(=O)N3CCCCC3)ccc2c1S(=O)(=O)N1CCCCC1 | 12.6 µM [rising, single point] | 15.8 µM [rising, single point]
CCOC(=O)C(C)Sc1nnc(NC(=O)c2ccc3c(c2)OCO3)s1 (configuration not stated) | – | 0.891 µM [rising, single point]
Nn1cnnc1N/N=C\c1ccc(-c2ccccc2[N+](=O)[O-])o1 | 6.31 µM [falling, full curve] | 10 µM [falling, partial curve]
CC(C)(C)C(=O)NC(=S)NNC(=O)c1ccncc1 | – | 4.47 µM [rising, partial curve]
Fc1cccc(Nc2ncnc3sc4c(c23)CCC4)c1 | – | 35.5 µM [rising, single point]

Arranged by formula weight (falling): some entries from above.
SMILES | AC50 [1] | AC50 [2]
CCCc1nn2c(=O)cc(COC(=O)c3ccccc3NC(=O)c3ccc(Cl)cc3)nc2s1 | 0.178 µM [falling, full curve] | 0.158 µM [falling, full curve]
Cc1ccc(C)c(Nc2ncccc2C(=O)NCc2cccs2)c1 | – | 20 µM [rising, single point]
CC(C)(C)C(=O)NC(=S)NNC(=O)c1ccncc1 | – | 4.47 µM [rising, partial curve]

(listing goes on)

SMILES | AC50 [1] | AC50 [2]
CCN(CC(=O)Nc1cc(Cl)ccc1C)c1ncnc2sc(C)c(C)c12 | 31.6 µM [rising, single point] | 31.6 µM [rising, single point]
COc1ccc(CC(NC(C)=O)C(=O)NC2CCN(c3c4c(nc5ncnn35)CCC4)CC2)cc1 (configuration not stated) | 6.31 µM [rising, single point] | –
CSc1nc2ccccc2cc1/C=C(\C#N)c1cccc(Cl)c1 | 7.08 µM [falling, partial curve] | 5.62 µM [falling, partial curve]
COC(=O)c1c(Cc2ccccc2Cl)c[nH]c1C | 35.5 µM [rising, single point] | 25.1 µM [rising, single point]
Cc1ccc(C(=O)C2CCN(CC(=O)NC3CCCCC3)CC2)cc1 | – | 31.6 µM [rising, single point]
CCc1ccccc1N(CC)C(=O)CCc1nc(-c2ccc(C)cc2)no1 | 31.6 µM [rising, single point] | 35.5 µM [rising, single point]
CSc1cccc(CN2CCCC(CO)(Cc3cccc(Cl)c3)C2)c1 (configuration not stated) | 11.2 µM [falling, partial curve, poor fit] | –
CCN(CCCNC(=O)Cn1ncc2c([nH]c3ccc(C)cc32)c1=O)c1cccc(C)c1 | 2.82 µM [falling, full curve, poor fit] | –
COc1cc(CN2CCN(c3cccc(C)c3C)CC2)cc(Br)c1O | 17.8 µM [rising, single point] | –
CCC(=O)N1c2ccccc2CC1C(=O)NCc1ccc(OC(C)C)cc1 (configuration not stated) | – | 17.8 µM [rising, single point]
CC(OC(=O)c1snc(C(=O)NC2CCCCC2)c1N)C(=O)NC(C)(C)C (configuration not stated) | 3.55 µM [rising, full curve] | 10 µM [rising, partial curve]
Cc1ccc2ncnc(Nc3ccc(C)c(C)c3)c2c1 | – | 11.2 µM [rising, partial curve]
Cc1csc2nc(-c3cccc(NC(=O)C(C)C)c3)cn12 | 0.447 µM [rising, full curve, poor fit] | –
CCOC(=O)c1ccc(N2C(=O)C(CC(N)=O)N(CCc3ccc(OC)c(OC)c3)C2=S)cc1 (configuration not stated) | 3.16 µM [falling, single point] | 35.5 µM [falling, partial curve, poor fit]
c1ccc2c(c1)OCCOCCOCCOCCOCCOc1ccccc1OCCOCCOCCO2 | 14.1 µM [rising, partial curve, poor fit] | 17.8 µM [rising, partial curve]
CCN1C(=O)C(CC(=O)Nc2ccc(Br)cc2)N(CCCc2ccccc2)C1=S (configuration not stated) | 35.5 µM [falling, single point] | 35.5 µM [falling, single point]
COc1cccc(Nc2ncc3nc(-c4cn(C)c5ccccc45)c(=O)n(CCC#N)c3n2)c1 | 2 µM [falling, full curve, poor fit] | 4.47 µM [falling, full curve]
C[C@@]1(O)CCOC(=O)C1 | 14.1 µM [falling, single point] | 14.1 µM [falling, single point]
O=C(Nc1cccc(Cl)c1)c1csc(-c2ccccc2)n1 | – | 20 µM [rising, single point]
CC[n+]1c(/C=C/c2ccc(N(C)C)cc2)ccc2ccccc21 | 2.24 µM [rising, partial curve] | 1.41 µM [rising, full curve]
Cc1cc(C2=NNC(=NC3CCCCC3)SC2)c(C)n1-c1c(C)n(C)n(-c2ccccc2)c1=O | – | 0.112 µM [falling, partial curve, poor fit]
Cc1cc(S(=O)(=O)N(Cc2cccs2)Cc2ccccc2F)ccc1-n1cnnn1 | 22.4 µM [rising, single point] | 35.5 µM [rising, single point]
CCc1cccc(NC(=O)Cc2cn(C)c3ccccc23)c1 | 12.6 µM [rising, single point] | 12.6 µM [rising, partial curve, poor fit]
O=C(Cn1cc(C(F)(F)F)cc(Cl)c1=O)Nc1ccc(N2CCOCC2)cc1 | 11.2 µM [falling, partial curve] | 35.5 µM [falling, partial curve]
CO[C@H]1[C@H](O[C@H]2O[C@@H](C)[C@@H](O[C@@H]3C[C@](C)(O)[C@H](O)[C@H](C)O3)[C@@H](N(C)C)[C@@H]2O)[C@@H](CC=O)C[C@@H](C)[C@@H](O[C@H]2CC[C@H](N(C)C)[C@H](C)O2)/C=C\C=C/C[C@@H](C)OC(=O)C[C@H]1O | 3.55 µM [rising, partial curve] | –

— PubChem BioAssay AID1487 (National Center for Advancing Translational Sciences (NCATS), 2009)
